In patent US6444670B2 (Wyeth, priority 1998, dated 2002):
At least one compound was matched to its structure with a doubt left.

System: diabetic (ob/ob) mice
Assay: Blood glucose lowering in diabetic (ob/ob) mice
Type: in vivo, mouse
Settings: positive control, 100 mg/kg/day
Description: The procedures used and results obtained are briefly described below.
The non-insulin dependent diabetic (NIDDM) syndrome can be typically characterizes by obesity, hyperglycemia, abnormal insulin secretion, hyperinsulinemia and insulin resistance.
In each test procedure, mice [Male or female ob/ob (C57 B1/6J) and their lean litermates (ob/+ or +/+, Jackson Laboratories) ages 2 to 5 months (10 to 65 g)] of a similar age were randomized according to body weight into 4 groups of 10 mice. The mice were housed 5 per cage and are maintained on normal rodent chow with water ad libitum. Mice received test compound daily by gavage (suspended in 0.5 ml of 0.5% methyl cellulose); dissolved in the drinking water; or admixed in the diet. The dose of compounds given ranges from 2.5 to 200 mg/kg body weight/day. The dose is calculated based on the fed weekly body weight and is expressed as active moiety. […] Control mice received vehicle only.
On the morning of Day 4, 7 or 14 two drops of blood (approximetly 50 ul) were collected into sodium fluoride containing tubes either from the tail vein or after decapitation. […] The plasma was isolated by centrifugation and the concentration of glucose is measured enzymatically on an Abbott V. P. Analyzer.
For each mouse, the percentage change in plasma glucose on Day 4, 7 or 14 is calculated relative to the mean plasma glucose of the vehicle treated mice. […]

CC1(COc2ccc(CC3SC(=O)NC3=O)cc2)CCCCC1 (stereo not shown) [Ciglitazone, 5-(4-(1-methylcyclohexylmethoxy)benzyl)-2,4-dione, reference compound]
lowering in plasma glucose: significant lowering in plasma glucose
